Settings in all cases: Compound Concentration 10.0 uM, Hit No
The target of assay [1] is N-glycosylase/DNA lyase (Homo sapiens) (UniProt O15527).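 Also: OGG1 cleavage of a quenched duplex DNA oligonucleotide, coupled to APE1 for strand incision, read as fluorescence at 594 nm.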
In assay [2] the target is T1, Single-strand selective monofunctional uracil DNA glycosylase (Homo sapiens) (UniProt Q53HV7).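 Also: enzymatic SMUG1 assay coupled with APE1, reading fluorescence at 594 nm released when a quenched double-stranded DNA oligonucleotide substrate is cleaved and separated.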
T1 sequence (whole entry): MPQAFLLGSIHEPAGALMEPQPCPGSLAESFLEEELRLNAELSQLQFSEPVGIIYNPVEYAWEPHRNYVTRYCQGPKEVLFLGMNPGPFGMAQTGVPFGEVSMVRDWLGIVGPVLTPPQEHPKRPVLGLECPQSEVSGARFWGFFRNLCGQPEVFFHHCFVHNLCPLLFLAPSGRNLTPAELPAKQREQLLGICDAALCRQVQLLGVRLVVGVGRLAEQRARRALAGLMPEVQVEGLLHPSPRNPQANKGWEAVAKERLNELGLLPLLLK

Protein sequences, listed by entry. Tags and fused reporters are not part of them. Lines headed by an entry give the natural chain unless they say otherwise; changes in a name come on top.
UniProt O15527, whole entry: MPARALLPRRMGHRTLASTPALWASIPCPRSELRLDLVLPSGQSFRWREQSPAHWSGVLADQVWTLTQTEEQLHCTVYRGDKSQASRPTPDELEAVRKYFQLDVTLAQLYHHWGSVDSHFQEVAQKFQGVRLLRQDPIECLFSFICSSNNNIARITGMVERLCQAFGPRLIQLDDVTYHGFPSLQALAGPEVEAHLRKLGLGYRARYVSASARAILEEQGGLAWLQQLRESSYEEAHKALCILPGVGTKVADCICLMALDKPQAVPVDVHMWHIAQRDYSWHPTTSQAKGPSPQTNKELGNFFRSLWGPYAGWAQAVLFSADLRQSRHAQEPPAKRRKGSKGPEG
UniProt Q13569: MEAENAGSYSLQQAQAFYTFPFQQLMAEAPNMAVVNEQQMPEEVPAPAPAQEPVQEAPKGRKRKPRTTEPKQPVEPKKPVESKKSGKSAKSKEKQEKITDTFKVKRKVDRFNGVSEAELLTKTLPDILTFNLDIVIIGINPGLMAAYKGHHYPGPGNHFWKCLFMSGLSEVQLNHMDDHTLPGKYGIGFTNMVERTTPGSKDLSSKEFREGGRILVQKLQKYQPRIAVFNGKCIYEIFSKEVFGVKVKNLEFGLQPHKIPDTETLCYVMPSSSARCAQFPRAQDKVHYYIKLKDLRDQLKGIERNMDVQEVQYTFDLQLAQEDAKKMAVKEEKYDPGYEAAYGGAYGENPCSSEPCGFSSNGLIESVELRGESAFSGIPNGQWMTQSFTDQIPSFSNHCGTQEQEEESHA
UniProt O95243: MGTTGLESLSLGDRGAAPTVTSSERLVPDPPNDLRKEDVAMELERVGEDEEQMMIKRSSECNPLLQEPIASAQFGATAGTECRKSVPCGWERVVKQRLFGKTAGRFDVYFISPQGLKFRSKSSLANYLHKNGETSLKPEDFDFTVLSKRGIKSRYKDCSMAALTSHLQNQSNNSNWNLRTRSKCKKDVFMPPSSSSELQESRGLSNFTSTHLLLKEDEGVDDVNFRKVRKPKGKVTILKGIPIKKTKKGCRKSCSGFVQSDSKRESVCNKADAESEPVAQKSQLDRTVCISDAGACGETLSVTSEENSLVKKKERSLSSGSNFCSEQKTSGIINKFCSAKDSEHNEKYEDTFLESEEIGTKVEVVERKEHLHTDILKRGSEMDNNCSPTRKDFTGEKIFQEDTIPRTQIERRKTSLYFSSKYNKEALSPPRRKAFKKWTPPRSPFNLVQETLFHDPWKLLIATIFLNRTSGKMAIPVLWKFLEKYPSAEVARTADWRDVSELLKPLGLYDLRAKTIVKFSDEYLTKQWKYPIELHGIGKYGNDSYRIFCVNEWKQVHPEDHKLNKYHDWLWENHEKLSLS
UniProt P13051, whole entry: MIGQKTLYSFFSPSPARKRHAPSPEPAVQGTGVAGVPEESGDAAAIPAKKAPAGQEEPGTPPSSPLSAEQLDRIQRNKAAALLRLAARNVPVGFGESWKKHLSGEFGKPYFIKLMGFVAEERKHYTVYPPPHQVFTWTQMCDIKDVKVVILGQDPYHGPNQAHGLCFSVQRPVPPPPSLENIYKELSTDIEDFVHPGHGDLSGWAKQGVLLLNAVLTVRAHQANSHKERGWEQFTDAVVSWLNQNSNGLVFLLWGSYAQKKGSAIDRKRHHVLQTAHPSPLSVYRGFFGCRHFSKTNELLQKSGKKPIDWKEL
UniProt Q96FI4, whole entry: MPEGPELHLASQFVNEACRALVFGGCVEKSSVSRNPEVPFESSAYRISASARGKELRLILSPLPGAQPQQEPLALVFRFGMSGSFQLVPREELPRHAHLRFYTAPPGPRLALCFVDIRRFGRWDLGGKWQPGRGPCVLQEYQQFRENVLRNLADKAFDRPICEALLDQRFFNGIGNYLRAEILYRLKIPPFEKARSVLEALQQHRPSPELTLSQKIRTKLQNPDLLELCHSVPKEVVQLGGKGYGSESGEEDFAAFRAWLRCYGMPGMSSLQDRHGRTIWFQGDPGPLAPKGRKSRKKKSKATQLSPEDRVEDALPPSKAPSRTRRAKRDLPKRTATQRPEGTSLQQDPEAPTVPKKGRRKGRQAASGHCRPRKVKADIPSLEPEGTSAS

For assay [3], the target named is G/T mismatch-specific thymine DNA glycosylase (Homo sapiens) (UniProt Q13569).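 Also: human TDG cleavage of quenched duplex DNA oligonucleotides coupled to APE1, strand release read as fluorescence at 594 nm, inhibition of TDG activity.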
Assay [4] addresses Methyl-CpG-binding domain protein 4 (Homo sapiens) (UniProt O95243).
Assay [5] addresses Uracil-DNA glycosylase (Homo sapiens) (UniProt P13051).
For assay [6], the target named is Endonuclease 8-like 1 (Homo sapiens) (UniProt Q96FI4).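 Also: fluorescence at 594 nm from quenched duplex DNA oligonucleotides released by NEIL1 cleavage and strand separation, reported as reduction of this enzyme activity.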
The target in assay [7] is T2, Endonuclease 8-like 2 (Homo sapiens) (UniProt Q969S2).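 Also: fluorescence at 594 nm reports NEIL2 cutting and release of a quenched double-stranded DNA oligo substrate, reduced signal read as inhibition.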
T2 sequence (whole entry): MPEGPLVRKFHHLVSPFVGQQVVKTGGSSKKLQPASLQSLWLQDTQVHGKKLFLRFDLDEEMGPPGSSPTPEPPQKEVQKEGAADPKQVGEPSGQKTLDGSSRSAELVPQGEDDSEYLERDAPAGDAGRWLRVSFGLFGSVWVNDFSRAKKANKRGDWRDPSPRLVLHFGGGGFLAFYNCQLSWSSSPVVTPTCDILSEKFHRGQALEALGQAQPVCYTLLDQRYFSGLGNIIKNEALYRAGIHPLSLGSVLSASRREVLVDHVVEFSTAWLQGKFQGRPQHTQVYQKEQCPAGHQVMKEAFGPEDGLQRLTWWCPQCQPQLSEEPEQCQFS

The values that follow come from ChEMBL document CHEMBL5665443, “Enzyme Inhibitor Single Concentration assay results for EUbOPEN Chemogenomics Library” (2024).

As usually defined, the inhibition is the change of the read-out against control, counted positive when it falls. `C[C@@H]1C[C@H](N)C[C@H](c2ccncc2NC(=O)c2ccc(F)c(-c3c(F)cccc3F)n2)C1`: the inhibition was -5.7% in assay [1]; -1.22% in assay [2]; 43.4% in assay [3]; -6.09% in assay [4]; -0.444% in assay [5]; 4.89% in assay [6]. In assay [7], the inhibition turned out to be 8.31%.
